# Results: US10533050B2, “Methods and compositions for liver cancer therapy” (Institut National de la Sante et de la Recherche Medicale …, priority 2010, dated 2020)
# Test system: hPG
# Test: Epitope mapping by SPOT technique and alanine scanning
# Assay type: binding, human
# Settings: PG peptide antigen SWKPRSQQPDAPLG (N-terminal)
row,Molecule,Epitope sequence bound
1,"MAb19: murine N-terminal anti-hPG monoclonal antibody, hybridoma 1B3B4F11, VH SEQ ID NO:62, VL SEQ ID NO:66 (antibody, V domains shown) VH: DVQLQESGPGLVKPSQSLSLTCTVTGYSITSDYAWNWIRQFPGNKLEWMGYISFSGYTSYNPSLKSRISVTRDTSRNQFFLQLTSVTTEDTATYYCAREVNYGDSYHFDYWGQGTIVTVSS VL: QLALTQSSSASFSLGASAKLTCTLSSQHRTYTIEWYQQQSLKPPKYVMEVKKDGSHSTGHGIPDRFSGSSSGADRYLSISNIQPEDEAIYICGVGDAIKGQSVFVFGGGTKVTVL",WKPRSQQPD
2,"MAb3: murine N-terminal anti-hPG monoclonal antibody, hybridoma 6B5B11C10, VH SEQ ID NO:12, VL SEQ ID NO:13 (antibody, V domains shown) VH: EVQLQQSGTVLARPGASVKMSCKASGYIFTSYWVHWVKQRPGQGLEWIGGFYPGNSDSRYNQKFKGKATLTAVTSASTAYMDLSSLTNEDSAVYFCTRRDSPQYWGQGTTLTVSS VL: DVLMTQTPLSLPVSLGDQASISCRSSQSIVHSNGNTYLEWYLQKPGQSPKLLIYKVSNRFSGVPDRFSGSGSGTDFTLKISRLEAEDLGVYYCFQGSHVPFTFGGGTKLEIK",DAPLG
3,"MAb4: murine N-terminal anti-hPG monoclonal antibody, hybridoma 20D2C3G2, VH SEQ ID NO:14, VL SEQ ID NO:15 (antibody, V domains shown) VH: QVQLQQSGAELMKPGASVKISCKATGYTFSSSWIEWLKQRPGHGLEWIGEFLPGSGSTDYNEKFKGKATFTADTSSDTAYMLLSSLTSEDSAVYYCATDGNYDWFAYWGQGTLVTVSA VL: DLVMTQTPLSLPVSLGDQASISCRSSQSLVHSSGVTYLHWYLQKPGQSPKLLIYKVSNRFSGVPDRFSGSGSGTDFTLKISRVEAEDLGVYFCSQSTHVPPTFGSGTKLEIK",WKPRSQQPDAPLG
